# Measurements reported in ChEMBL document CHEMBL4808254, “Further SAR studies on natural template based neuroprotective molecules for the treatment of Alzheimer's disease” (Bioorg Med Chem, 2021).
# Assay: Permeability of the compound in PBS buffer at pH 7.4 at 500 uM incubated for 18 hrs by PAMPA-BBB assay
smiles,measurement,value
COc1cc2c(cc1OC)C(=O)C(CC1CCN(Cc3ccccc3)CC1)C2 (stereo unspecified) [DONEPEZIL],"Papp at 18 h, 500 µM",15.6 ×10⁻⁶ cm/s
